The AC50 is the concentration at which the activity in the assay is half-maximal.

Some of the results follow. Further columns of the screen follow, without active or inactive calls. Most of these compounds were active or inconclusive in the main read-out, so they are no random draw. The note in brackets gives the kind of curve behind each potency; many fits are weak.

41 molecules from PubChem BioAssay AID445 (National Center for Advancing Translational Sciences (NCATS), 2006) can be followed below.

The assay in a line: IkB Signaling. Particulars: ABC-DLBCL IkBa-CBG/CBR dual luciferase ratio (green luciferase fused to IkBa over red control in OCI-Ly3 lymphoma cells), 4 h. In short, it runs like this:
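Luminescence ratio of IκBα-fused green versus native red beetle luciferase in OCI-Ly3 cells, 4 h post-doxycycline with compound; red signal alone, scaled from basal (0%) to zero light (-100%), flagged nonspecific or cytotoxic effects.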

The mark [1] stands for this setting: measured here: control luc red channel unless noted.

For the molecule `Cc1ccc(CNC(=O)c2ccc3c(c2)nc(C)n3-c2cccc(F)c2)cc1`, the concentration at half-maximal activity (AC50) under setting [1] is 39.8 µM [falling, single point].

With `CCOc1ccc(NC(=O)CSC2=Nc3ccccc3C3=NC(CCC(=O)NCc4ccccc4)C(=O)N23)cc1` (configuration not stated), the AC50 is 39.8 µM [rising, single point] (measured here: IkB-luc green channel) and 39.8 µM [rising, single point] (measured here: control luc red channel).

For the molecule `COc1ccc2ccccc2c1CN1CCN(C(=O)c2ccccc2)CC1`, under setting [1], the half-maximal activity concentration (AC50) was 15.8 µM [falling, partial curve].

As to `Cc1cc(C(F)(F)F)n2nc(-c3ccc(Br)cc3)cc2n1`, the half-maximal activity concentration (AC50) under setting [1] is 1 µM [rising, full curve].

Take `Cc1ccc2c(CC(=O)Nc3sccc3C(N)=O)coc2c1`: the concentration at half-maximal activity (AC50) under setting [1] was 20 µM [falling, partial curve].

On to `CCCCOc1ccc(-c2nn(-c3ccccc3)cc2C2NC(=O)NC(C)=C2C(=O)OCC)cc1` (configuration not stated), for which the AC50 under setting [1] is 20 µM [falling, single point].

For `c1ccc(SCc2nc(-c3ccccn3)no2)cc1`, the concentration at half-maximal activity (AC50) under setting [1] is 7.94 µM [falling, partial curve].

Regarding `CCc1ccc(Sc2cc(C(=O)NCc3ccccc3OC)c3ccccc3n2)cc1`, the AC50 under setting [1] is 25.1 µM [falling, partial curve, poor fit].

Turning to `CCn1c(=O)cc(SCC(=O)NCc2ccc(F)cc2Cl)c2ccccc21`, under setting [1], the AC50 is 20 µM [falling, partial curve].

For the molecule `COc1cc(N[C@@H](C)CCCN)c2ncccc2c1`, the AC50 under setting [1] is 15.8 µM [falling, partial curve].

Take `CCc1ccc(Sc2cc(C(=O)NCc3cccc(OC)c3)c3ccccc3n2)cc1`: the AC50 under setting [1] was 10 µM [falling, partial curve].

In the case of `Cc1ccc(OCc2nc(-c3ccc(C(=O)N4CCN(c5ccccc5F)CC4)cc3)oc2C)cc1`, under setting [1], the concentration at half-maximal activity (AC50) is 7.94 µM [falling, partial curve].

In the case of `O=C1OC(C(=O)Nc2cccc(Br)c2)Cc2ccccc21` (configuration not stated), the concentration at half-maximal activity (AC50) under setting [1] was 1 µM [rising, full curve].

For `Cc1ccc(NC(=O)c2ccc(-c3cccc(Cl)c3C)o2)cc1`, under setting [1], the AC50 is 25.1 µM [falling, partial curve].

As to `COc1ccc(OC)c(CNC(=O)c2cc3c(-c4ccc(OC)c(OC)c4)nn(C)c3s2)c1`, the AC50 under setting [1] is 3.16 µM [falling, full curve].

Turning to `CCCCCn1c(=O)[nH]c2cc(C(=O)Nc3cc(C)cc(C)c3)ccc2c1=O`, the concentration at half-maximal activity (AC50) under setting [1] was 0.0501 µM [rising, full curve, poor fit].

On to `CN(C)S(=O)(=O)N(CC(=O)NCCSCc1ccccc1)c1ccccc1`, for which the AC50 under setting [1] was 10 µM [falling, partial curve].

Take `COc1ccc(Cl)cc1NC(=O)c1cc(S(=O)(=O)NC2CCCCCC2)ccc1F`: under setting [1], the AC50 was 20 µM [falling, partial curve, poor fit].

Turning to `Cc1ccc(C)c(NC(=O)CN2CCCN(Cc3cccc(Cl)c3)S2(=O)=O)c1`, the AC50 under setting [1] is 12.6 µM [falling, partial curve].

Consider `COc1cccc(NC(=O)/C=C\c2ccc(Cl)cc2)c1`, for which, under setting [1], the half-maximal activity concentration (AC50) is 5.01 µM [falling, partial curve].

Consider `CCC1(C)CC(=O)c2c(ccc3oc(C(=O)NCc4ccccc4)c(C)c23)O1` (configuration not stated), for which, under setting [1], the AC50 is 39.8 µM [falling, single point].

Take `COc1cccc(-c2cc(C(=O)Nc3c(C)nn(Cc4ccccc4Cl)c3C)no2)c1`: the AC50 under setting [1] was 15.8 µM [falling, partial curve].

For the molecule `Cc1cc2nnc(SCc3ccc(F)cc3)n2c2ccccc12`, under setting [1], the concentration at half-maximal activity (AC50) was 20 µM [falling, partial curve].

As to `CC(C)CCn1c(=O)c2cccnc2n(CC(=O)Nc2ccc(F)cc2)c1=O`, the AC50 under setting [1] is 20 µM [falling, partial curve].

Consider `Cc1occc1-c1nnc(SCC(=O)Nc2ccccc2)n1CCc1ccccc1`, for which the concentration at half-maximal activity (AC50) under setting [1] was 15.8 µM [falling, partial curve].

Consider `CN1CCN(C2(CNC(=O)c3ccc(C(C)(C)C)cc3)CCCCC2)CC1`, for which, under setting [1], the concentration at half-maximal activity (AC50) is 15.8 µM [falling, partial curve].

Take `COc1ccc(OCC(=O)Nc2nnc(S(=O)(=O)N3CCc4ccccc43)s2)cc1`: under setting [1], the concentration at half-maximal activity (AC50) was 0.631 µM [rising, full curve, poor fit].

For `Cc1cccc(C)c1Nc1c(-c2ccccc2F)nc2cccc(C)n12`, the AC50 under setting [1] is 31.6 µM [falling, partial curve].

`CCOc1ccc(C(=O)/C=C/c2cn(CC(O)CN3CCCCCC3)c3ccccc23)cc1` (configuration not stated): the AC50 under setting [1] is 25.1 µM [falling, partial curve].

Consider `O=C(c1ccc(N2CCOCC2)cc1)c1cccs1`, for which the half-maximal activity concentration (AC50) under setting [1] is 10 µM [falling, partial curve].

Regarding `CCc1nnc(NC(=O)c2nc(S(=O)(=O)Cc3ccc(C)cc3)ncc2Cl)s1`, the concentration at half-maximal activity (AC50) under setting [1] was 7.94 µM [falling, full curve].

`COc1ccc(NC(=O)c2cccc(NC(=O)c3ccco3)c2)c(OC)c1`: under setting [1], the AC50 is 10 µM [falling, partial curve].

Regarding `COC(=O)c1ccc(CSc2nc(-c3ccco3)cc(C(F)(F)F)n2)o1`, the AC50 under setting [1] was 25.1 µM [falling, single point].

As for `Nc1nc(-c2c[nH]c3ccccc23)cs1`, the AC50 under setting [1] is 3.98 µM [falling, full curve].

Take `CCOC(=O)CC(NC(=O)CCc1c(C)nc2c(c(C)nn2-c2ccc(C)c(C)c2)c1C)c1ccc(C)cc1` (configuration not stated): the concentration at half-maximal activity (AC50) under setting [1] was 5.01 µM [falling, full curve, poor fit].

On to `Cc1cccc(-n2ncc(C(=O)N3CCN(C4CCCCC4)CC3)c2C2CCN(C(=O)OC(C)(C)C)CC2)c1`, for which the concentration at half-maximal activity (AC50) under setting [1] is 15.8 µM [falling, partial curve].

As to `COc1cccc(C(=O)NCc2ccc3c(c2)CCN3C(=O)c2ccncc2)c1`, the AC50 under setting [1] was 39.8 µM [falling, single point].

For the molecule `CCOC(=O)Cc1csc(NC(=O)c2cccc(OC)c2)n1`, the AC50 under setting [1] is 12.6 µM [falling, partial curve].

In the case of `COc1ccccc1-c1nc(SCC(=O)c2ccccc2)n[nH]1`, under setting [1], the AC50 was 0.01 µM [falling, full curve].

`COc1ccc(-c2[nH]c(-c3cccc(OC)c3)nc2SCC(=O)Nc2ccc3c(c2)OCO3)cc1`: the AC50 under setting [1] is 3.16 µM [falling, full curve].

With `CCN(c1cccc(C)c1)S(=O)(=O)c1ccc(N2CCCCS2(=O)=O)cc1`, the half-maximal activity concentration (AC50) under setting [1] is 0.00501 µM [rising, full curve, poor fit].
